In patent US20170058042A1 (Genentech, published 2017):
These are yes or no findings as the source states them, for the method shown. Some results given as binding are weak or reduced against the parent protein; the word gives no strength.

Target: T1, human Ly6E coated on ELISA plates (human) (UniProt Q16553)
T1 sequence: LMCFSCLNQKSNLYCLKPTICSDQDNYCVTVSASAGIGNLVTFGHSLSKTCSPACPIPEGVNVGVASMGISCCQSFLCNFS
Assay: ELISA, plates coated with 50 ng human Ly6E per well; hybridoma clones

binding: binds
B1: rabbit anti-Ly6E antibody clone GEN-93-8-1 (antibody, V domains shown)
VH: QSVEESGGRLVTPGTPLTLTCATSGFSLSIYDMTWVRQAPGKGLEWIGVIYTSGGAYYANWAKGRFTISRTSTTVDLRMTSPTTEDTATYFCVRNWAHGSDLWGQGTLVTVSS
VL: DPVVTQTPSSASAAVGGTVSISCQSSQSVYNNNYLGWYQQKPGQPPKLLIYDASKLASGVPSRFKASGSGTQFALTISDLECDDAATYYCVGGYPGSLNVFGGGTEVVVK
notes: Rabbit monoclonal IgG; also called antibody GEN-93-8-1
